Data from article PMC12431657, “Discovery and mechanistic insights of dibenzoylmethane as a broad spectrum inhibitor of coronavirus” (PLOS Pathogens, 2025).
Where a name gives a salt, the structure may show the parent alone. Read-outs that look alike come from different tables or passages of the source. The whole screen tested about 3,300 compounds, of which about 60 (2%) showed an effect of 50% or more. The list shows a part of the results.

Test system: HCoV-OC43
Design: species or system RD; HTS, protection from HCoV-OC43 induced cell death, luminescent cell viability (CellCounting-Lite 2.0), inhibition rate
Conditions: 24 h post infection, 1 h compound pre-incubation, 10 µM, inhibitor

SMILES | OC43 Inhibition rate [%] | OC43 Inhibition rate (OC43 Inhibition rate, 24 h) [%]
COc1ccc(C(=O)/C=C/c2ccc(O)cc2)c(O)c1CC=C(C)C [4-Hydroxyderricin] | 2 | 
O=C(O)C(O)c1cccc(O)c1 (centres unmarked) [3-Hydroxymandelic Acid] | -0.1 | 
CC12CCC(C1)C(C)(C)C2O (centres unmarked) [Fenchyl alcohol] | -5.1 | 
CC(C)=CCC[C@@](C)(O)[C@H]1CC[C@]2(C)[C@@H]1[C@H](O)C[C@@H]1[C@@]3(C)CC[C@H](O)C(C)(C)[C@@H]3[C@@H](O[C@@H]3O[C@H](CO)[C@@H](O)[C@H](O)[C@H]3O[C@@H]3O[C@@H](C)[C@H](O)[C@@H](O)[C@H]3O)C[C@]12C [20(R)-Ginsenoside Rg2] | 8.8 | 
CNC(=O)c1cccnc1 [N-Methylnicotinamide] | 0.5 | 
CC(C)=CCc1cc([C@@H]2CC(=O)c3ccc(O)c(CC=C(C)C)c3O2)ccc1O [Glabrol] | 55.6 | 
O=C(/C=C/c1ccc(O)c(O)c1)O[C@@H]1C[C@@](O)(C(=O)O)C[C@@H](O)[C@@H]1O [Neochlorogenic acid] | -0.4 | 
CC(C)(O)CCC(=O)[C@](C)(O)C1[C@H](O)C[C@@]2(C)[C@@H]3CC=C4[C@@H](C[C@H](O)[C@@H](O)C4(C)C)[C@]3(C)C(=O)C[C@]12C (some centres unmarked) [Cucurbitacin IIb] | -0.5 | 
C[C@]12CCC(=O)C=C1CC[C@@H]1[C@@H]2CC[C@@]2(C)[C@H]1CC[C@]2(O)C(=O)CO [Cortodoxone] | 1.1 | 
Cc1c(N)nc([C@H](CC(N)=O)NC[C@H](N)C(N)=O)nc1C(=O)N[C@H](C(=O)N[C@H](C)[C@@H](O)[C@H](C)C(=O)N[C@H](C(=O)NCCc1nc(-c2nc(C(=O)NCCC[S+](C)C)cs2)cs1)[C@@H](C)O)[C@@H](O[C@@H]1O[C@@H](CO)[C@@H](O)[C@H](O)[C@@H]1O[C@H]1O[C@H](CO)[C@@H](O)[C@H](OC(N)=O)[C@@H]1O)c1cnc[nH]1 [Bleomycin (sulfate)] | -11.1 | 
C[C@@H]1CC[C@@]2(NC1)O[C@H]1C[C@H]3[C@@H]4CC=C5C[C@@H](O)CC[C@]5(C)[C@H]4CC[C@]3(C)[C@H]1[C@@H]2C [Solasodine] | 0.9 | 
C[C@H](O)CC(=O)O [(S)-3-Hydroxybutanoic acid] | 3.9 | 
CCCCCCCCCC(=O)N[C@@H](Cc1c[nH]c2ccccc12)C(=O)N[C@H](CC(N)=O)C(=O)N[C@@H](CC(=O)O)C(=O)N[C@@H]1C(=O)NCC(=O)N[C@@H](CCCN)C(=O)N[C@@H](CC(=O)O)C(=O)N[C@H](C)C(=O)N[C@@H](CC(=O)O)C(=O)NCC(=O)N[C@H](CO)C(=O)N[C@@H]([C@H](C)CC(=O)O)C(=O)N[C@@H](CC(=O)c2ccccc2N)C(=O)O[C@@H]1C [Daptomycin] | 62.7 | 
NC(=O)NC(NC(N)=O)C(=O)O [Allantoic acid] | 0.9 | 
CC(C)(O)CC[C@@H](O)[C@](C)(O)[C@H]1CC=C2C3=C(CC[C@@]21C)[C@@]1(C)C[C@H](O)[C@H](O)C[C@H]1C(=O)C3 [Podecdysone B] | -0.3 | 
COc1cc(C(=O)O[C@H]2[C@@H]3C=CO[C@@H](O[C@@H]4O[C@H](CO)[C@@H](O)[C@H](O)[C@H]4O)[C@@H]3[C@@]3(CO)O[C@@H]23)ccc1O [Picroside II] | 0.3 | 
CC(=O)OCC1=CO[C@@H](OC(=O)CC(C)C)[C@H]2C1=C[C@H](OC(=O)CC(C)(C)OC(C)=O)[C@]21CO1 [Acevaltrate] | 1.4 | 
C[C@H](CCC(=O)NCC(=O)O)[C@H]1CC[C@H]2[C@@H]3C[C@H](O)[C@@H]4C[C@H](O)CC[C@]4(C)[C@H]3CC[C@]12C [Glycohyodeoxycholic acid] | -0.5 | 
Nc1ncnc2c1ncn2[C@@H]1O[C@H](CO)[C@@H](O)[C@@H]1O [Vidarabine] | -2.6 | 
O=c1[nH]cnc2nc[nH]c12 [Hypoxanthine] | -0.8 | 
COc1ccc2c(c1O)-c1c(OC)c(OC)cc3c1[C@H](C2)N(C)CC3 [Isocorydine] | 8.2 | 
CC[C@H](C)[C@H](N)C(=O)O [L-Isoleucine] | -3.5 | 
COC(=O)/C=C/c1ccc(O)cc1 [(E)-Methyl 4-coumarate] |  | 0.4
NCCCCN [1,4-Diaminobutane (dihydrochloride)] | -0.1 | 
CO[C@@H]1[C@@H](OC)[C@H](C)[C@@](O)(CC(=O)O)O[C@H]1[C@H](C)[C@H]1O[C@@]2(CC[C@@](C)([C@H]3CC[C@@](C)([C@@H]4O[C@@H]([C@H]5O[C@](C)(O)[C@H](C)C[C@@H]5C)C[C@@H]4O[C@@H]4C[C@H](OC)[C@@H](OC)[C@H](C)O4)O3)O2)C[C@H](O)[C@H]1C [Maduramicin (ammonium)] | -13.3 | 
CC(C(=O)O)C(O)(CC(=O)O)C(=O)O (centres unmarked) [2-Methylcitric acid] | -1.2 | 

Reformatted with tabs: two of the compounds above
SMILES	OC43 Inhibition rate [%]	OC43 Inhibition rate (OC43 Inhibition rate, 24 h) [%]
CNC(=O)c1cccnc1 [N-Methylnicotinamide]	0.5	
CC(C)=CCc1cc([C@@H]2CC(=O)c3ccc(O)c(CC=C(C)C)c3O2)ccc1O [Glabrol]	55.6	
